In patent publication US20130251724A1:
Numbering of substitutions follows the chain as printed. Results are given in words; binding and its absence hold for the method and conditions named. Some binding calls cover weakened binding; strength is not graded here.

B1: 9G2, murine anti-OSM mAb (antibody, V domains shown)
VH: EVQLVESGGGLVEPGGSLKLSCAASGFTFSNYAMSWVRQTPEKRLEWVATISDGGSFTYYLDNVKGRFTISRDNAKNNLYLQMSHLKSDDTAMYYCARDVGHTTFWYFDVWGTGTTVTVSS
VL: DIVLTQSPVFLVISLGQRATISCRASKSVSASGYNFMHWYQQKPGQPPKVLIKYASNLESGVPARFSGSGSGTDFTLNIHPVEEEDAVTYYCQHSREFPFTFGGGTKLEIK
B2: 10G8 chimaera (antibody, human IgG1, kappa, V domains shown)
VH: B1 VH with V2M, G9E, R44S, K65R, T113S, T116L
VL: DIVLTQSPVFLVVSLGQRATISCRASKSVSAAGYNFMHWYQQKPGQPPKVLIKYASNLESGVPARFSGSGSGTDFTLNIHPVEEEDAVTYYCLHSREFPFTFGGGTNLEIKR
B3: 9G2 chimaera (antibody, human IgG1, kappa, V domains shown)
VH: B1 VH with T116L
VL: B2 VL with V13I, A32S, L93Q, N107K
B4: anti human OSM mAb S168110G08(1)1A09 (10G8), murine (antibody, V domains shown)
VH: B1 VH with V2M, G9E, R44S, K65R, T113S, T116A
VL: B1 VL with I13V, S32A, Q93L, K107N
B5: Humanised 10G8 H0L1 (antibody, human IgG1, kappa, V domains shown)
VH: EVQLVESGGGLVQPGGSLRLSCAASGFTFSNYAMSWVRQAPGKGLEWVATISDGGSFTYYLDNVRGRFTISRDNAKNSLYLQMNSLRAEDTAVYYCARDVGHTTFWYFDVWGRGTLVTVSS
VL: DIVMTQSPDSLAVSLGERATINCRASKSVSAAGYNFMHWYQQKPGQPPKVLIYYASNLESGVPDRFSGSGSGTDFTLTISSLQAEDVAVYYCLHSREFPFTFGGGTKVEIKR
B6: Humanised 10G8 H1L1 (antibody, V domains shown)
VH: B5 VH with V2M
VL: DIVMTQSPDSLAVSLGERATINCRASKSVSAAGYNFMHWYQQKPGQPPKVLIYYASNLESGVPDRFSGSGSGTDFTLTISSLQAEDVAVYYCLHSREFPFTFGGGTKVEIK
B7: Humanised 10G8 H2L1 (antibody, V domains shown)
VH: B5 VH with R113S
VL: B6 VL
B8: Humanised 10G8 H0L4 (antibody, V domains shown)
VH: B5 VH
VL: B6 VL with A88V, K107N
B9: Humanised 10G8 H1L4 (antibody, V domains shown)
VH: B5 VH with V2M
VL: B6 VL with A88V, K107N
B10: Humanised 10G8 H2L4 (antibody, V domains shown)
VH: B5 VH with R113S
VL: B6 VL with A88V, K107N
B11: Humanised 10G8 H0(IGHV3-23)L1 (antibody, human IgG1, kappa, V domains shown)
VH: B5 VH with N31S
VL: B5 VL

Target: Cynomolgus OSM (cynomolgus)
Assay: BIAcore kinetics

binding, binds:
B1
B2
B3
B4

Target: Cynomolgus OSM (cynomolgus)
Assay: BIAcore, purified antibody

binding, binds:
B5
B6
B7
B8
B9
B10
B11
